The exact form of at least one protein or probe is not confirmed. A weaker result is weaker than the reference pair of the same experiment. For some assays here: At least one verdict was read from the data and is not stated in words by the source. For some assays here: At least one result comes from cells or an extract, where the contact may be indirect.
How the values were obtained:
[1] = tested on: hnRNPA1-His (hnRNPA1A); experiment: pull-down; details: purified protein, consistent with lysate result; pull-down: lysate in 150 mM KCl, 0.5 mM DTT, 0.5% NP-40, 25 mM Tris-HCl pH 7.5, 4 C overnight; recombinant protein; residues 1-320; protein details: His (pET-32a vector)
[2] = tested on: hnRNPA1 overexpressed (hnRNPA1A); experiment: pull-down; details: KYSE150 lysate, pull-down: lysate in 150 mM KCl, 0.5 mM DTT, 0.5% NP-40, 25 mM Tris-HCl pH 7.5, 4 C overnight, protein in a lysate after overexpression, residues 1-320, protein details: SBP-HA or Flag
[3] = tested on: hnRNPA1-His (hnRNPA1A); experiment: BLI; details: RNA on streptavidin probe, higher KD than oligo2, value only in figure; BLI: PBS, 0.002% Tween-20, 0.02% BSA, temperature not stated; recombinant protein; residues 1-320; protein details: His (pET-32a vector)

Question: Which results are given for “ACAACUGCCACACCGGUAAGGCCAGGCCGC [oligo2-U13C+A14C]”?
Answer: binding result [1]: binds more weakly; binding result ([2]; very little bound): binds more weakly

Question: Does ACAACUGCCACAUAGGUAAGGCCAGGCCGC [oligo2] bind [2]?
Answer: binds

Question: Does “AGCAGCCUCCUCUGCCCUGCUUCUCCCUAGGUUGUU [oligo1]” bind [3]?
Answer: binds more weakly

Question: Does “AGCAGCCUCCUCUGCCCUGCUUCUCCCUAGGUUGUU [oligo1]” bind ([2]; less than oligo2)?
Answer: binds
